Data reported in the supplement of paper PMC8728848.
The other results are listed elsewhere or left out.

Tests used:
Assay in all cases: glycan array binding signal (z-score within array); higher = stronger binding
Settings in all cases: glycan notation: IUPAC condensed, linker removed
[1] = biological target: GlcNAc(b1-3)Gal(b1-4)GlcNAc(b1-3)Gal(b1-4)GlcNAc(b1-2)Man(a1-3)[GlcNAc(b1-3)Gal(b1-4)GlcNAc(b1-3)Gal(b1-4)GlcNAc(b1-2)Man(a1-6)]Man(b1-4)GlcNAc(b1-4)GlcNAc
How it was run: (§1)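 From the Consortium for Functional Glycomics database, 3228 arrays were curated, keeping only those whose protein sequence was available. Binding is given as a within-array Z-score averaged across arrays sharing a protein sequence and across linkers. Negative Z-scores can be read as non-binding.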

[2] = biological target: GlcNAc(b1-3)Gal(b1-4)GlcNAc(b1-3)Gal(b1-4)GlcNAc(b1-2)Man(a1-3)[GlcNAc(b1-3)Gal(b1-4)GlcNAc(b1-3)Gal(b1-4)GlcNAc(b1-2)Man(a1-6)]Man(b1-4)GlcNAc(b1-4)[Fuc(a1-6)]GlcNAc
How it was run: as §1

[3] = biological target: GlcNAc(b1-3)Gal(b1-4)GlcNAc(b1-3)Gal(b1-4)GlcNAc(b1-2)[GlcNAc(b1-3)Gal(b1-4)GlcNAc(b1-3)Gal(b1-4)GlcNAc(b1-6)]Man(a1-6)[GlcNAc(b1-3)Gal(b1-4)GlcNAc(b1-3)Gal(b1-4)GlcNAc(b1-2)Man(a1-3)]Man(b1-4)GlcNAc(b1-4)[Fuc(a1-6)]GlcNAc
How it was run: as §1

[4] = biological target: GlcNAc(b1-3)Gal(b1-4)GlcNAc(b1-3)Gal(b1-4)GlcNAc(b1-3)Gal(b1-4)GlcNAc(b1-2)Man(a1-3)[GlcNAc(b1-3)Gal(b1-4)GlcNAc(b1-3)Gal(b1-4)GlcNAc(b1-3)Gal(b1-4)GlcNAc(b1-2)Man(a1-6)]Man(b1-4)GlcNAc(b1-4)GlcNAc
How it was run: as §1

[5] = biological target: GlcNAc(b1-3)Gal(b1-4)GlcNAc(b1-3)Gal(b1-4)GlcNAc(b1-3)Gal(b1-4)GlcNAc(b1-2)Man(a1-3)[GlcNAc(b1-3)Gal(b1-4)GlcNAc(b1-3)Gal(b1-4)GlcNAc(b1-3)Gal(b1-4)GlcNAc(b1-2)Man(a1-6)]Man(b1-4)GlcNAc(b1-4)[Fuc(a1-6)]GlcNAc
How it was run: as §1

[6] = biological target: GlcNAc(b1-3)Gal(b1-4)GlcNAc(b1-3)Gal(b1-4)GlcNAc(b1-3)Gal(b1-4)GlcNAc(b1-2)[GlcNAc(b1-3)Gal(b1-4)GlcNAc(b1-3)Gal(b1-4)GlcNAc(b1-3)Gal(b1-4)GlcNAc(b1-6)]Man(a1-6)[GlcNAc(b1-3)Gal(b1-4)GlcNAc(b1-3)Gal(b1-4)GlcNAc(b1-3)Gal(b1-4)GlcNAc(b1-2)Man(a1-3)]Man(b1-4)GlcNAc(b1-4)[Fuc(a1-6)]GlcNAc
How it was run: as §1

[7] = biological target: GlcNAc(b1-3)Gal(b1-4)GlcNAc(b1-3)Gal(b1-4)GlcNAc(b1-3)Gal(b1-4)GlcNAc(b1-3)Gal(b1-4)GlcNAc(b1-2)Man(a1-3)[GlcNAc(b1-3)Gal(b1-4)GlcNAc(b1-3)Gal(b1-4)GlcNAc(b1-3)Gal(b1-4)GlcNAc(b1-3)Gal(b1-4)GlcNAc(b1-2)Man(a1-6)]Man(b1-4)GlcNAc(b1-4)GlcNAc
How it was run: as §1

[8] = biological target: GlcNAc(b1-3)Gal(b1-4)GlcNAc(b1-3)Gal(b1-4)GlcNAc(b1-3)Gal(b1-4)GlcNAc(b1-3)Gal(b1-4)GlcNAc(b1-2)Man(a1-3)[GlcNAc(b1-3)Gal(b1-4)GlcNAc(b1-3)Gal(b1-4)GlcNAc(b1-3)Gal(b1-4)GlcNAc(b1-3)Gal(b1-4)GlcNAc(b1-2)Man(a1-6)]Man(b1-4)GlcNAc(b1-4)[Fuc(a1-6)]GlcNAc
How it was run: as §1

[9] = biological target: GlcNAc(b1-3)Gal(b1-4)GlcNAc(b1-3)Gal(b1-4)GlcNAc(b1-3)Gal(b1-4)GlcNAc(b1-3)Gal(b1-4)GlcNAc(b1-2)[GlcNAc(b1-3)Gal(b1-4)GlcNAc(b1-3)Gal(b1-4)GlcNAc(b1-3)Gal(b1-4)GlcNAc(b1-3)Gal(b1-4)GlcNAc(b1-6)]Man(a1-6)[GlcNAc(b1-3)Gal(b1-4)GlcNAc(b1-3)Gal(b1-4)GlcNAc(b1-3)Gal(b1-4)GlcNAc(b1-3)Gal(b1-4)GlcNAc(b1-2)Man(a1-3)]Man(b1-4)GlcNAc(b1-4)[Fuc(a1-6)]GlcNAc
How it was run: as §1

[10] = biological target: GlcNAc(b1-3)Gal(b1-4)GlcNAc(b1-3)Gal(b1-4)GlcNAc(b1-3)GalNAc
How it was run: as §1

[11] = biological target: GlcNAc(b1-3)Gal(b1-4)GlcNAc(b1-3)GalNAc
How it was run: as §1

[12] = biological target: GlcNAc(b1-3)Gal(b1-4)GlcNAc(b1-3)[GlcNAc(b1-3)Gal(b1-4)GlcNAc(b1-3)]GalNAc
How it was run: as §1

[13] = biological target: GlcNAc(b1-3)Gal(b1-4)GlcNAc(b1-6)[Gal(b1-3)]GalNAc
How it was run: as §1

[14] = biological target: GlcNAc(b1-3)Gal(b1-4)GlcNAc(b1-6)[GlcNAc(b1-3)Gal(b1-3)]GalNAc
How it was run: as §1

[15] = biological target: GlcNAc(b1-3)Gal(b1-4)GlcNAc(b1-6)[GlcNAc(b1-3)]Gal(b1-4)GlcNAc
How it was run: as §1

GlcNAc(b1-3)GalNAc = biological target: GlcNAc(b1-3)GalNAc
How it was run: as §1

GlcNAc(b1-3)Man = biological target: GlcNAc(b1-3)Man
How it was run: as §1

[16] = biological target: GlcNAc(b1-3)[GlcNAc(b1-4)][GlcNAc(b1-6)]GlcNAc
How it was run: as §1

[17] = biological target: GlcNAc(b1-3)[GlcNAc(b1-6)]Gal(b1-4)GlcNAc
How it was run: as §1

[18] = biological target: GlcNAc(b1-3)[GlcNAc(b1-6)]GalNAc
How it was run: as §1

[19] = biological target: GlcNAc(b1-4)Gal(b1-4)GlcNAc
How it was run: as §1

GlcNAc(b1-4)GlcNAc = biological target: GlcNAc(b1-4)GlcNAc
How it was run: as §1

[20] = biological target: GlcNAc(b1-4)GlcNAc(b1-4)GlcNAc
How it was run: as §1

[21] = biological target: GlcNAc(b1-4)GlcNAc(b1-4)GlcNAc(b1-4)GlcNAc(b1-4)GlcNAc
How it was run: as §1

[22] = biological target: GlcNAc(b1-4)GlcNAc(b1-4)GlcNAc(b1-4)GlcNAc(b1-4)GlcNAc(b1-4)GlcNAc
How it was run: as §1

[23] = biological target: GlcNAc(b1-4)[GlcNAc(b1-6)]GalNAc
How it was run: as §1

[24] = biological target: GlcNAc(b1-6)Gal(b1-4)GlcNAc
How it was run: as §1

GlcNAc(b1-6)GalNAc = biological target: GlcNAc(b1-6)GalNAc
How it was run: as §1

[25] = biological target: GlcNAc6S(b1-3)Gal(b1-4)GlcNAc
How it was run: as §1

Kdn(a2-3)Gal(b1-3)GalNAc = biological target: Kdn(a2-3)Gal(b1-3)GalNAc
How it was run: as §1

Kdn(a2-3)Gal(b1-3)GlcNAc = biological target: Kdn(a2-3)Gal(b1-3)GlcNAc
How it was run: as §1

Kdn(a2-3)Gal(b1-4)Glc = biological target: Kdn(a2-3)Gal(b1-4)Glc
How it was run: as §1

Kdn(a2-3)Gal(b1-4)GlcNAc = biological target: Kdn(a2-3)Gal(b1-4)GlcNAc
How it was run: as §1

[26] = biological target: Kdn(a2-3)Gal(b1-4)[Fuc(a1-3)]GlcNAc
How it was run: as §1

Kdn(a2-6)Gal(b1-4)GlcNAc = biological target: Kdn(a2-6)Gal(b1-4)GlcNAc
How it was run: as §1

[27] = biological target: Man(a1-2)Man(a1-2)Man(a1-3)Man
How it was run: as §1

[28] = biological target: Man(a1-2)Man(a1-2)Man(a1-6)[Man(a1-3)]Man
How it was run: as §1

Man(a1-2)Man(a1-3)Man = biological target: Man(a1-2)Man(a1-3)Man
How it was run: as §1

B1: MtEccB1 (Mycobacterium tuberculosis H37Rv), O69734 (protein)
chain: MGLRLTTKVQVSGWRFLLRRLEHAIVRRDTRMFDDPLQFYSRSIALGIVVAVLILAGAALLAYFKPQGKLGGTSLFTDRATNQLYVLLSGQLHPVYNLTSARLVLGNPANPATVKSSELSKLPMGQTVGIPGAPYATPVSAGSTSIWTLCDTVARADSTSPVVQTAVIAMPLEIDASIDPLQSHEAVLVSYQGETWIVTTKGRHAIDLTDRALTSSMGIPVTARPTPISEGMFNALPDMGPWQLPPIPAAGAPNSLGLPDDLVIGSVFQIHTDKGPQYYVVLPDGIAQVNATTAAALRATQAHGLVAPPAMVPSLVVRIAERVYPSPLPDEPLKIVSRPQDPALCWSWQRSAGDQSPQSTVLSGRHLPISPSAMNMGIKQIHGTATVYLDGGKFVALQSPDPRYTESMYYIDPQGVRYGVPNAETAKSLGLSSPQNAPWEIVRLLVDGPVLSKDAALLEHDTLPADPSPRKVPAGASGAP
- glycan array binding signal (z-score) [1]: 0.756
- glycan array binding signal (z-score) [2]: 0.269
- glycan array binding signal (z-score) [3]: 2.12
- glycan array binding signal (z-score) [4]: 0.955
- glycan array binding signal (z-score) [5]: 0.902
- glycan array binding signal (z-score) [6]: 2.37
- glycan array binding signal (z-score) [7]: -0.114
- glycan array binding signal (z-score) [8]: -0.532
- glycan array binding signal (z-score) [9]: 3.92
- glycan array binding signal (z-score) [10]: 0.477
- glycan array binding signal (z-score) [11]: -0.11
- glycan array binding signal (z-score) [12]: 1.16
- glycan array binding signal (z-score) [13]: 1.21
- glycan array binding signal (z-score) [14]: 0.429
- glycan array binding signal (z-score) [15]: -1.28
- glycan array binding signal (z-score) (GlcNAc(b1-3)GalNAc): -0.534
- glycan array binding signal (z-score) (GlcNAc(b1-3)Man): -1.1
- glycan array binding signal (z-score) [16]: 0.769
- glycan array binding signal (z-score) [17]: -0.11
- glycan array binding signal (z-score) [18]: -0.073
- glycan array binding signal (z-score) [19]: -0.68
- glycan array binding signal (z-score) (GlcNAc(b1-4)GlcNAc): 0.434
- glycan array binding signal (z-score) [20]: -1.03
- glycan array binding signal (z-score) [21]: -0.566
- glycan array binding signal (z-score) [22]: -2.06
- glycan array binding signal (z-score) [23]: -0.393
- glycan array binding signal (z-score) [24]: 1.08
- glycan array binding signal (z-score) (GlcNAc(b1-6)GalNAc): 0.192
- glycan array binding signal (z-score) [25]: -0.827
- glycan array binding signal (z-score) (Kdn(a2-3)Gal(b1-3)GalNAc): 0.396
- glycan array binding signal (z-score) (Kdn(a2-3)Gal(b1-3)GlcNAc): -0.55
- glycan array binding signal (z-score) (Kdn(a2-3)Gal(b1-4)Glc): -0.792
- glycan array binding signal (z-score) (Kdn(a2-3)Gal(b1-4)GlcNAc): -0.433
- glycan array binding signal (z-score) [26]: -1.29
- glycan array binding signal (z-score) (Kdn(a2-6)Gal(b1-4)GlcNAc): -0.865
- glycan array binding signal (z-score) [27]: -1.02
- glycan array binding signal (z-score) [28]: 0.061
- glycan array binding signal (z-score) (Man(a1-2)Man(a1-3)Man): -0.429
